The record followed here is PubChem BioAssay AID186 (DTP/NCI, 2004).

The experiment concerns B6D2F1 mice, nontumored toxicity test, survival. The experiment is described as follows: NCI In Vivo Anticancer Drug Screen. Data for tumor model Nontumored Animals (Toxicity Test) in B6D2F1 (BDF1) mice.

Shown are survivors of the treated group in tumour-free mice. Counts of survivors are from the toxicity check (mostly the fifth day) where no day follows; animals may have died later. Schedule codes are those of the source, taken here to give the interval after Q, in days (D) or hours (H), and the number of doses after X.

In the case of `O=[N+]([O-])c1ccc(CSc2ncnc3c2ncn3C2OC(CO)C(O)C2O)cc1` (stereo unspecified), the survivor count (dose: 3.13 mg/kg/injection, schedule: Q01DX009 (ip), vehicle: saline with Tween-80) is 5 of 5; the survivor count (dose: 6.25 mg/kg/injection, schedule: Q01DX009 (ip), vehicle: saline with Tween-80) is listed as 5 of 5; the survivor count (dose: 12.5 mg/kg/injection, schedule: Q01DX009 (ip), vehicle: saline with Tween-80) is listed as 5 of 5; the survivor count (dose: 25.0 mg/kg/injection, schedule: Q01DX009 (ip), vehicle: saline with Tween-80) is 5 of 5; the survivor count (dose: 50.0 mg/kg/injection, schedule: Q01DX009 (ip), vehicle: saline with Tween-80) is 5 of 5; the survivor count (dose: 100.0 mg/kg/injection, schedule: Q01DX009 (ip), vehicle: saline with Tween-80) is given as 5 of 5.
For the molecule `N#C[C@@H]1C2C=CC(CC2)[C@H]1C#N`, the survivor count runs as follows: (dose: 2.4 mg/kg/injection, schedule: Q01DX009 (ip), vehicle: gum acacia) 10 of 10; (dose: 2.4 mg/kg/injection, schedule: Q03HX024 (ip), vehicle: gum acacia) 10 of 10; (dose: 3.6 mg/kg/injection, schedule: Q01DX009 (ip), vehicle: gum acacia) 9 of 10; (dose: 3.6 mg/kg/injection, schedule: Q03HX024 (ip), vehicle: gum acacia) 3 of 10; (dose: 5.4 mg/kg/injection, schedule: Q01DX009 (ip), vehicle: gum acacia) 0 of 10; (dose: 5.4 mg/kg/injection, schedule: Q03HX024 (ip), vehicle: gum acacia) 0 of 10. Besides, the survivor count reads like this: (dose: 8.0 mg/kg/injection, schedule: Q01DX009 (ip), vehicle: gum acacia) 0 of 10; (dose: 8.0 mg/kg/injection, schedule: Q03HX024 (ip), vehicle: gum acacia) 0 of 10; (dose: 12.0 mg/kg/injection, schedule: Q01DX009 (ip), vehicle: gum acacia) 0 of 10; (dose: 12.0 mg/kg/injection, schedule: Q03HX024 (ip), vehicle: gum acacia) 0 of 10; (dose: 24.0 mg/kg/injection, schedule: Q01DX001 (ip), vehicle: gum acacia) 0 of 10; (dose: 24.0 mg/kg/injection, schedule: Q04DX003 (ip), vehicle: gum acacia) 0 of 10. Further, the survivor count runs as follows: (dose: 36.0 mg/kg/injection, schedule: Q01DX001 (ip), vehicle: gum acacia) 0 of 10; (dose: 36.0 mg/kg/injection, schedule: Q04DX003 (ip), vehicle: gum acacia) 0 of 10; (dose: 54.0 mg/kg/injection, schedule: Q01DX001 (ip), vehicle: gum acacia) 0 of 10; (dose: 54.0 mg/kg/injection, schedule: Q04DX003 (ip), vehicle: gum acacia) 0 of 10; (dose: 80.0 mg/kg/injection, schedule: Q01DX001 (ip), vehicle: gum acacia) 0 of 10; (dose: 80.0 mg/kg/injection, schedule: Q04DX003 (ip), vehicle: gum acacia) 0 of 10. Besides, the survivor count runs as follows: (dose: 120.0 mg/kg/injection, schedule: Q01DX001 (ip), vehicle: gum acacia) 0 of 10; (dose: 120.0 mg/kg/injection, schedule: Q04DX003 (ip), vehicle: gum acacia) 0 of 10.
